Values quoted from earlier work, collected in US8987245B2, “Composition and method for affecting obesity and related conditions” (priority 2008, dated 2015).
For at least one compound, name, drawing or mass did not settle the structure.

Settings: cited from earlier work

## O=C(O)c1ccc(-c2c3nc(c(-c4ccc(C(=O)O)cc4)c4ccc([n-]4)c(-c4ccc(C(=O)O)cc4)c4nc(c(-c5ccc(C(=O)O)cc5)c5ccc2[n-]5)C=C4)C=C3)cc1.[Mn+3] [MnTBAP, manganese [III] tetrakis (4-benzoic acid) porphyrin]
  crossing of the blood-brain barrier: does not cross the blood-brain barrier
